The experiment has as its system BDF1 mice, Adenocarcinoma 755 s.c., tumor weight T/C. The experiment is described as follows: NCI In Vivo Anticancer Drug Screen. Data for tumor model Adenocarcinoma 755 (subcutaneous) in B6D2F1 (BDF1) mice. The conditions noted are these: T/C endpoint: mean tumor weight, schedule: Q01DX011 (ip), vehicle: carboxymethylcellulose (CMC), evaluation day not shown, higher T/C = larger tumour. On the procedure:
The antitumor activity of compounds was measured in mice bearing transplantable tumors. Survival or tumor size were measured and the results are expressed as the measurement made in the treated group (T) divided by the measurement made in the vehicle treated control group (C). The tumor model used in this assay is Adenocarcinoma 755 (subcutaneous) in B6D2F1 (BDF1) mice

SMILES strings stand for the structures. The list does not hold the whole screen: it covers a few groups of compounds. Other doses and runs of a compound may be missing. T/C gives the treated animals as a percentage of the vehicle group. Some entries show no survivor count and are marked so; the dose need not have been tolerated. Schedules are NCI's codes, taken here to give the interval after Q, in days (D) or hours (H), and the number of doses after X. Some doses were run more than once; the results are listed from low to high.

The results in this text go back to PubChem BioAssay AID180 (DTP/NCI, 2004).

On to `CN(CCCl)CCCl`, for which the T/C reads like this: (dose: 0.08 mg/kg/injection) 117 % of control [survivor count not shown]; (dose: 0.09 mg/kg/injection) 81 % of control [survivor count not shown]; (dose: 0.11 mg/kg/injection) 36 % of control [survivor count not shown]; (dose: 0.12 mg/kg/injection) 67 % of control [survivor count not shown]; (dose: 0.18 mg/kg/injection) 84 % of control [survivor count not shown]; (dose: 0.22 mg/kg/injection) 24 % of control [survivor count not shown]. In addition, the T/C was 101 % of control [survivor count not shown] (dose: 0.25 mg/kg/injection); 76 % of control [survivor count not shown] (dose: 0.27 mg/kg/injection); 111 % of control [survivor count not shown] (dose: 0.35 mg/kg/injection); 50 % of control [survivor count not shown] (dose: 0.5 mg/kg/injection); 59 % of control [survivor count not shown] (dose: 12.0 micrograms/kg/injection); 49 % of control [survivor count not shown] (dose: 24.0 micrograms/kg/injection). Further, the T/C reads like this: (dose: 44.0 micrograms/kg/injection) 23 [survivor count not shown], 67 [survivor count not shown], 90 % of control [survivor count not shown]; (dose: 48.0 micrograms/kg/injection) 74 % of control [survivor count not shown]; (dose: 55.0 micrograms/kg/injection) 69 [survivor count not shown], 133 [survivor count not shown], 141 % of control [survivor count not shown]; (dose: 73.0 micrograms/kg/injection) 57 [survivor count not shown] and 120 % of control [survivor count not shown]; (dose: 95.0 micrograms/kg/injection) 99 % of control [survivor count not shown]; (dose: 110.0 micrograms/kg/injection) 82 [survivor count not shown] and 153 % of control [survivor count not shown]. The T/C (dose: 220.0 micrograms/kg/injection) is 98 [survivor count not shown] and 132 % of control [survivor count not shown].
